# Measured values reported in publication PMC4029619.
# By UniProt entry, the sequences of proteins in these tests, tags left out. Where a name states a change or a piece, a line headed by the entry shows the natural chain unless it says otherwise. Chains listed by the source or under a name are the forms on record and can include a tag or linker.
# myosin heavy chain (Zip), endogenous, detected with anti-Zip antibody (Drosophila (endogenous in spermatocytes)) (Q99323, form named): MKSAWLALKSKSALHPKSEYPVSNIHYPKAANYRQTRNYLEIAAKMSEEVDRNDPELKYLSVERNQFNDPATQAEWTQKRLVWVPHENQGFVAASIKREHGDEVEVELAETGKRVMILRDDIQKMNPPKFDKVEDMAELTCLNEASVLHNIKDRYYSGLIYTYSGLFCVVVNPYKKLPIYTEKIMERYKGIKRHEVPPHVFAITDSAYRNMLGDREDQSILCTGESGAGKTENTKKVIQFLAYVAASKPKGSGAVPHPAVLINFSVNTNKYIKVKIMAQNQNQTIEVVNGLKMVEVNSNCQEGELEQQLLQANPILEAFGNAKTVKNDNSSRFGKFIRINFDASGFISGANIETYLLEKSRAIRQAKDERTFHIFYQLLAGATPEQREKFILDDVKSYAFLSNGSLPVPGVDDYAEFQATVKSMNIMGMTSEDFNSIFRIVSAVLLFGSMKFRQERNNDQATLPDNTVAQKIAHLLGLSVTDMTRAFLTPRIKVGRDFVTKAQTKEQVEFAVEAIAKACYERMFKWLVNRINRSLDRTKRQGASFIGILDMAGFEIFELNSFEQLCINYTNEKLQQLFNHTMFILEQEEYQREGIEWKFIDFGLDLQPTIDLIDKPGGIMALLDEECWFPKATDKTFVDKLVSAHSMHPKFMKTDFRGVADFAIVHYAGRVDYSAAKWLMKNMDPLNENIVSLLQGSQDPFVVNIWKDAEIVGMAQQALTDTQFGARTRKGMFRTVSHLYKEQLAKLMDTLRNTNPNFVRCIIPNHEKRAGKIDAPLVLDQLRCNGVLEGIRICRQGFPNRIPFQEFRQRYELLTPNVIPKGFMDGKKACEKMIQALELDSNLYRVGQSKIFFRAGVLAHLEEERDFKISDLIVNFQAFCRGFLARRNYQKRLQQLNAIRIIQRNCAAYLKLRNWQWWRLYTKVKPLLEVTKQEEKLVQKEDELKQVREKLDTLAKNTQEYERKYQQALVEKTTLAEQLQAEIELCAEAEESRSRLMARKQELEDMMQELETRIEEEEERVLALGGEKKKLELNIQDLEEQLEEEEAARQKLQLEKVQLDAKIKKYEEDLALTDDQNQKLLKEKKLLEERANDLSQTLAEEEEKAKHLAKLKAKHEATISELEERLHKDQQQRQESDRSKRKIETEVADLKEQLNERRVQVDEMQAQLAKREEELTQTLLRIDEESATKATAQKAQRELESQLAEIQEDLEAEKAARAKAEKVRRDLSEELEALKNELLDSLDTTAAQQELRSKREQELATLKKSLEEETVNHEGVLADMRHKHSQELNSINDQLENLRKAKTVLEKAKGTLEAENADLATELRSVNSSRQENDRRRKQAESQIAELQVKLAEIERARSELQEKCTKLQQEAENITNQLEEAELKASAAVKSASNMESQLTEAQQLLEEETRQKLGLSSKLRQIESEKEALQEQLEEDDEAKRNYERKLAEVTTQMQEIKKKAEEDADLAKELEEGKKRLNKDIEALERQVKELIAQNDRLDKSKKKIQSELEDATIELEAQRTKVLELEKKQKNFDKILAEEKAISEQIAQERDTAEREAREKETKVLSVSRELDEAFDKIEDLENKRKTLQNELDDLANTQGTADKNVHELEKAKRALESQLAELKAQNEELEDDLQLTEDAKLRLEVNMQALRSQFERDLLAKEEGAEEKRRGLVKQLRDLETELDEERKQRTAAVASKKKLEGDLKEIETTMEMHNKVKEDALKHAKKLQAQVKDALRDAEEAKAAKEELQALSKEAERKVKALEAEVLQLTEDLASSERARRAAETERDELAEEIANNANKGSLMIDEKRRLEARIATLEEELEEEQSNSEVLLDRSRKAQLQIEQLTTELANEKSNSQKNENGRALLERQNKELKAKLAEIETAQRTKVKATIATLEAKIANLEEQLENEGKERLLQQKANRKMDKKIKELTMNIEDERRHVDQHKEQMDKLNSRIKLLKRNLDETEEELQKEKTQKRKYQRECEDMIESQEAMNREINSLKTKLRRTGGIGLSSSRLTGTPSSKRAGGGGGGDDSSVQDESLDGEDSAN
# UniProt P08985: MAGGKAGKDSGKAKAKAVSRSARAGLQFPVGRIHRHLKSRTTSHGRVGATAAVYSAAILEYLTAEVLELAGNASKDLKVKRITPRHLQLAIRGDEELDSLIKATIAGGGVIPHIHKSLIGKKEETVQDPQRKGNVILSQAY
# These are yes or no findings as the source states them, for the method shown. Binding seen in cells or lysates may run through a third protein. Some binding calls cover weakened binding; strength is not graded here. For some of these results: Tags and fused reporters may be left off the sequences shown.
# T1: anillin (endogenous, detected with anti-anillin antibody) (Drosophila (endogenous in spermatocytes)) (UniProt Q9V4P1)
# T1 sequence: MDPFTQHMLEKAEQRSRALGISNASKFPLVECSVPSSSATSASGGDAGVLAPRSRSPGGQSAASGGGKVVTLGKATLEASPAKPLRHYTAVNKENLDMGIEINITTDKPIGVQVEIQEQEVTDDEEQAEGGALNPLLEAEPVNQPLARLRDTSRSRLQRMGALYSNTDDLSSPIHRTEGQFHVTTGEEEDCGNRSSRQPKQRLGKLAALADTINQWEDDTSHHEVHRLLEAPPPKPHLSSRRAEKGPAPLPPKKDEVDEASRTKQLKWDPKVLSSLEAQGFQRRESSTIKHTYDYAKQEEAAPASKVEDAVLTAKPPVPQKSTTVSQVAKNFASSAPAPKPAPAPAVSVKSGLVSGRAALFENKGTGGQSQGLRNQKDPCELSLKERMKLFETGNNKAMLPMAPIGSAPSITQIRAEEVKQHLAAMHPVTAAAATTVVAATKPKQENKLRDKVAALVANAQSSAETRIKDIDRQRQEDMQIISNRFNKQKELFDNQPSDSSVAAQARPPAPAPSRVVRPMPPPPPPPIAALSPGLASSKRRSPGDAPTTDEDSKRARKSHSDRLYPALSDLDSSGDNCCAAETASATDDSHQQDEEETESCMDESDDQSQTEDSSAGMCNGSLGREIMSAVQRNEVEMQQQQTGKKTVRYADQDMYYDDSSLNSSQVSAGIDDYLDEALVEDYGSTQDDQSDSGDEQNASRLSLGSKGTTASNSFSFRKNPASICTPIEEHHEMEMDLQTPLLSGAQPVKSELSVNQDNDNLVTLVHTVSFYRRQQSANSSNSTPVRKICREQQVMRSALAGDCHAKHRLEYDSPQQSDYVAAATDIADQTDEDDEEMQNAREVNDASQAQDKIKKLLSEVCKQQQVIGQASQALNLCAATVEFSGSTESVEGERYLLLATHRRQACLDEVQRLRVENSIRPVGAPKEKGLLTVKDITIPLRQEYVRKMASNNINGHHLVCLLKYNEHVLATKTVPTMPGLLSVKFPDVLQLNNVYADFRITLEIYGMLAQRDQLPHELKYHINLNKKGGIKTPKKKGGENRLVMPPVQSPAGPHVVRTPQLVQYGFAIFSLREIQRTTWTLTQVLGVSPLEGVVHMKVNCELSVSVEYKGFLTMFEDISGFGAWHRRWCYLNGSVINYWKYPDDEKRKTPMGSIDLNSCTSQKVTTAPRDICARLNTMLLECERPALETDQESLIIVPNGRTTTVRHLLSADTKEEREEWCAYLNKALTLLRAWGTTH
# T2: GFP-Sqh/myosin light-chain (MLC) (Drosophila) (UniProt P40423)
# T2 sequence: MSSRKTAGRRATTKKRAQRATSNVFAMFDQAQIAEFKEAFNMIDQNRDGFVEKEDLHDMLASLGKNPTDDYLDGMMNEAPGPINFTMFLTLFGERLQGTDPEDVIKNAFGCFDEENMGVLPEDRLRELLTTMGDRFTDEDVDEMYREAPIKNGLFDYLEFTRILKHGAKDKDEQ
# B1: GFP-Orbit (protein, UniProt Q9NBD7 1-1491)
# chain: MAYRKPSDLDGFIQQMPKADMRVKVQLAEDLVTFLSDDTNSIVCTDMGFLIDGLMPWLTGSHFKIAQKSLEAFSELIKRLGSDFNAYTATVLPHVIDRLGDSRDTVREKAQLLLRDLMEHRVLPPQALIDKLATSCFKHKNAKVREEFLQTIVNALHEYGTQQLSVRVYIPPVCALLGDPTVNVREAAIQTLVEIYKHVGDRLRPDLRRMDDVPASKLAMLEQKFDQVKQEGLLLPSALKNTNGNGVGLDEADNIGLRERPTRMIKRPLHSAVSSSLRPKPNVNDVTGDAGAVTMESFESSFEVVPQLNIFHAKDMDDIYKQVLVIISDKNADWEKRVDALKKIRALLILSYHTQPQFVAVQLKELSLSFVDILKEELRSQVIREACITIAYMSKTLRNKLDAFCWSILEHLINLIQNSAKVIASASTIALKYIIKYTHAPKLLKIYTDTLNQSKSKDIRSTLCELMVLLFEEWQTKALERNATVLRDTLKKSIGDADCDARRHSRYAYWAFRRHFPELADQIYGTLDIAAQRALEREREGGGGGGTGTGTGTAPETRRTVSRIGRTPGTLQKPTPSMRSISAVDTAAAQRAKVRAQYTLYSRQRKPLGPNNSNQASMTGAAASGSLPRPRLNSNSGGTPATTPGSVTPRPRGRAGVSQSQPGSRSTSPSTKLRDQYGGIGNYYRGATGAIPKKASGIPRSTASSRETSPTRSGGGLMKRSMYSTGAGSRRTPERNNPVRPSAAARLLAQSREAEHTLGVGDDGQPDYVSGDYMRSGGMRMGRKLMGRDESDDIDSEASSVCSERSFDSSYTRGNKSNYSLSGSHTRLDWSTQRAPFDDIETIIQFCASTHWSERKDGLISLTQYLADGKELTQQQLKCVLDMFRKMFMDTHTKVYSLFLDTVTELILVHANELHEWLFILLTRLFNKLGTDLLNSMHSKIWKTLQVVHEYFPTQLQLKELFRIISDSTQTPTTKTRIAILRFLTDLANTYCKSSDFPSDQSQACERTVLKLAQLAADQKSMELRSQARSCLVALYNLNTPQMTLLLADLPKVYQDSARSCIHSHMRRQSQSCNSGANSPSSSPLSSSSPKPLQSPSVGPFASLQSHHHQLSISSTSPRSRQSSVEQELLFSSELDIQHNIQKTSEEIRHCFGGQYQTALAPNGFNGHLQYHDQGQQDSCASLSSNSKTQSSANTTQSNTPESATMRLDNLERERTTQNAKSPTDDAKVITVSINMAENGELILASNLMESEVVRVALTLTKDQPVELLQTSLTNLGICIKGGNCELPNKHFRSIMRMLLNILEAEHTDVVIAGLHVLSKIMRSNKMRHNWMHFLELILLKIIQCYQHSKEALRDIDSMIPRIAPSLPLDLSINIVNPVIATGEFPTNLCAIKILLEVTEHHGSEITDAHLDIVFPNLARSADDTQSMVRKAAVFCIVKLYFVLGEEKVKPKLSVLNPSKVRLLNVYIEKQRNCISGGGSSTKNSSAASSS
# B2: Orbit, Drosophila ortholog of the MT plus-end tracking protein CLASP (endogenous, detected with anti-Orbit antibody) (protein, UniProt Q9NBD7 1-1491)
# chain: B1 chain
# Key:
# [1] = biological target: myosin heavy chain (Zip), endogenous, detected with anti-Zip antibody (Drosophila (endogenous in spermatocytes)) (UniProt Q99323); test: proximity ligation; in situ PLA (Duolink kit) on fixed Drosophila primary spermatocytes, late anaphase to telophase I; one partner detected by its own antibody, the GFP-tagged partner by anti-GFP; signal means within 40 nm
# [2] = biological target: myosin heavy chain (Zip), endogenous, detected with anti-Zip antibody (Drosophila (endogenous in spermatocytes)) (UniProt Q99323); test: proximity ligation; in situ PLA, signals in ring canals of fixed spermatocytes; data not shown
# [3] = biological target: T1, anillin (endogenous, detected with anti-anillin antibody) (Drosophila (endogenous in spermatocytes)); test: proximity ligation; in situ PLA (Duolink kit) on fixed Drosophila primary spermatocytes, late anaphase to telophase I; one partner detected by its own antibody, the GFP-tagged partner by anti-GFP; signal means within 40 nm
# [4] = biological target: T2, GFP-Sqh/myosin light-chain (MLC) (Drosophila); test: as above
molecule,measurement,setting,value
GFP-Histone 2Av (from UniProt P08985 1-141),binding,[1],no binding
B1,binding,[2],binds
same,binding,[3],no binding
B2,binding,[4],binds
